Source: ChEMBL document CHEMBL3988442, “University of Dundee, Small-Polar-MMV Screening Library” (2021).

Values are the deposited “Percent Effect”, in %.
The record does not define 0% and 100%; most values in the screen are far below 50% and negative numbers occur (in some assays of this library far below -100).
The compounds are a random part of those screened.

Mtb growth Cornell: 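Whole-cell assay for inhibitors of Mycobacterium tuberculosis growth, labelled Cornell in the record; the read-out is not stated. The concentration is filed as 10 mM, unlikely as a test dose, so the dose is not known. Higher means stronger inhibition (inferred from two other growth screens of the library). Of about 53,000 compounds tested this way, about 900 (1.7%) reached 50% or more in at least one test.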
Mtb heat-shock: 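Assay on Mycobacterium tuberculosis, filed only as a heat shock assay from Cornell; the read-out is not stated. The concentration is filed as 10 mM, unlikely as a test dose, so the dose is not known. Direction is inferred from retests: higher values go with stronger inhibition. Of about 69,000 compounds tested this way, about 930 (1.4%) reached 50% or more in at least one test.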

- COc1ccccc1OC1CN(C(=O)C(c2ccc(F)cc2)N(C)C)C1 (centres undefined) : Mtb heat-shock: -22.85%
- CCOC(=O)c1nc(CN2CCN(C(C)C(=O)NC3CC3)CC2)cs1 (centres undefined) : Mtb growth Cornell: -98.76%; Mtb heat-shock: 12.2%
- N#CCSCCCN1CCN(C(=O)C2CCCC2)CC1 : Mtb heat-shock: 5.332%
- Cc1nnc(C(C)NCC2(c3ccc(F)cc3)CCCCC2)o1 (centres undefined) : Mtb heat-shock: -17.94%
- OC[C@H]1CN(Cc2c(Cl)cccc2Cl)C[C@H]1CN1CCCCC1 : Mtb growth Cornell: -3.74%; Mtb heat-shock: -34.72%
- Cn1ccnc1CN1CCN(c2ccc(C#N)cn2)CC1 : Mtb growth Cornell: 19.41%; Mtb heat-shock: -1.551%
- O=C(O)C(F)(F)F.O=C(O)C(F)(F)F.O=C(c1ccsc1)N1CCC2(CC1)COCCN(Cc1ccncc1)C2 : Mtb growth Cornell: 13.19%; Mtb heat-shock: 5.779%
- CCOc1ccc(CC(=O)Nc2cnccc2SCCCO)cc1 : Mtb growth Cornell: -8.745%; Mtb heat-shock: -30.01%